Test results reported in patent US12491217B2, “Compositions and methods for promoting healthy neural development in an unborn baby” (The Regents of the University of California, priority 2019, dated 2025).
Where a SMILES comes first, the peptide text is derived from it.

Experiment: Metabolomics of fetal brain at E14.5
Type: in vivo, C57Bl/6J mice
[1] = metabolite level in E14.5 fetal brain, ANOVA contrast ABX/SPF
[2] = metabolite level in E14.5 fetal brain, ANOVA contrast GF/ABX
[3] = metabolite level in E14.5 fetal brain, ANOVA contrast GF/SPF
[4] = metabolite level in E14.5 fetal brain, ANOVA contrast GF/Sp
[5] = metabolite level in E14.5 fetal brain, ANOVA contrast Sp/ABX
[6] = metabolite level in E14.5 fetal brain, ANOVA contrast Sp/SPF

| Structure (SMILES) | fold of change ABX/SPF [1] | fold of change GF/ABX [2] | fold of change GF/SPF [3] | fold of change GF/Sp [4] | fold of change Sp/ABX [5] | fold of change Sp/SPF [6] | fold of change ABX/SPF (E14.5 fetal brain metabolite level, ANOVA contrast ABX vs SPF) | fold of change GF/ABX (E14.5 fetal brain metabolite level, ANOVA contrast GF vs ABX) | fold of change GF/SPF (E14.5 fetal brain metabolite level, ANOVA contrast GF vs SPF) | fold of change GF/Sp (E14.5 fetal brain metabolite level, ANOVA contrast GF vs Sp) | fold of change Sp/ABX (E14.5 fetal brain metabolite level, ANOVA contrast Sp vs ABX) | fold of change Sp/SPF (E14.5 fetal brain metabolite level, ANOVA contrast Sp vs SPF) |
| --- | --- | --- | --- | --- | --- | --- | --- | --- | --- | --- | --- | --- |
| COC1OC(CO)C(O)C(O)C1O (mixture of isomers) [compound 4246] | 0.62 | 1.57 | 0.98 | 0.68 | 2.32 | 1.45 |  |  |  |  |  |  |
| CC(O)CC(=O)OC(CC(=O)[O-])C[N+](C)(C)C (single isomer, unassigned) [compound 1482] |  |  |  |  |  |  | 0.82 | 1.39 | 1.14 | 1.44 | 0.96 | 0.79 |
| NCC(=O)O [compound 1] | 0.82 | 1.15 | 0.94 | 1.14 | 1.01 | 0.83 |  |  |  |  |  |  |
| CC(=O)NCC(=O)O [compound 2] | 1.01 | 1.37 | 1.38 | 1.51 | 0.91 | 0.91 |  |  |  |  |  |  |
| CN(C)CC(=O)O [compound 5] | 0.69 | 1.20 | 0.83 | 1.09 | 1.10 | 0.76 |  |  |  |  |  |  |
| C[N+](C)(C)CC(=O)[O-] [compound 6] | 0.66 | 1.21 | 0.80 | 0.98 | 1.23 | 0.81 |  |  |  |  |  |  |
| N[C@@H](CO)C(=O)O [compound 9] | 1.07 | 0.97 | 1.04 | 1.23 | 0.79 | 0.85 |  |  |  |  |  |  |
| CC(=O)N[C@@H](CO)C(=O)O [compound 10] | 0.82 | 1.10 | 0.90 | 1.12 | 0.98 | 0.80 |  |  |  |  |  |  |
| N[C@@H](COP(=O)(O)O)C(=O)O [compound 14] | 1.01 | 1.51 | 1.53 | 1.91 | 0.79 | 0.80 |  |  |  |  |  |  |
| C[C@@H](O)[C@H](N)C(=O)O [compound 16] | 0.80 | 1.14 | 0.92 | 1.17 | 0.98 | 0.79 |  |  |  |  |  |  |
| CC(=O)N[C@H](C(=O)O)[C@@H](C)O [compound 17] | 0.84 | 1.19 | 1.01 | 1.12 | 1.07 | 0.90 |  |  |  |  |  |  |
| CC(O)C(N)C(=O)O (stereo not drawn) [compound 18] | 0.68 | 1.21 | 0.82 | 1.04 | 1.16 | 0.79 |  |  |  |  |  |  |
| C[C@H](N)C(=O)O [compound 28] | 0.83 | 1.04 | 0.86 | 1.05 | 0.99 | 0.82 |  |  |  |  |  |  |
| CC(=O)N[C@@H](C)C(=O)O [compound 30] | 0.72 | 1.16 | 0.83 | 1.01 | 1.15 | 0.82 |  |  |  |  |  |  |
| N[C@@H](CC(=O)O)C(=O)O [compound 34] | 0.81 | 1.03 | 0.83 | 1.01 | 1.01 | 0.82 |  |  |  |  |  |  |
| CC(=O)N[C@@H](CC(=O)O)C(=O)O [compound 35] | 0.69 | 1.06 | 0.73 | 0.92 | 1.15 | 0.79 |  |  |  |  |  |  |
| NC(=O)C[C@H](N)C(=O)O [compound 38] | 0.95 | 1.01 | 0.96 | 1.01 | 1.00 | 0.95 |  |  |  |  |  |  |
| CC(=O)N[C@@H](CC(N)=O)C(=O)O [compound 39] | 0.87 | 1.13 | 0.98 | 1.07 | 1.06 | 0.92 |  |  |  |  |  |  |
| NC(=O)C(O)C(N)C(=O)O (stereo not drawn) [compound 40] | 0.55 | 1.03 | 0.56 | 0.81 | 1.27 | 0.69 |  |  |  |  |  |  |
| N[C@@H](CCC(=O)O)C(=O)O [compound 41] | 0.84 | 1.03 | 0.86 | 0.99 | 1.04 | 0.87 |  |  |  |  |  |  |
| NC(=O)CC[C@H](N)C(=O)O [compound 42] | 0.70 | 0.96 | 0.67 | 0.78 | 1.23 | 0.86 |  |  |  |  |  |  |
| NC(=O)CCC(=O)C(=O)O [compound 43] | 0.77 | 0.81 | 0.63 | 0.34 | 2.42 | 1.87 |  |  |  |  |  |  |
| CC(=O)N[C@@H](CCC(=O)O)C(=O)O [compound 44] | 0.76 | 1.00 | 0.75 | 0.98 | 1.02 | 0.77 |  |  |  |  |  |  |
| NC(CC(O)C(=O)O)C(=O)O (stereo not drawn) [compound 47] | 1.04 | 1.01 | 1.05 | 1.65 | 0.61 | 0.64 |  |  |  |  |  |  |
| COC(=O)CC[C@H](N)C(=O)O [compound 50] | 0.71 | 1.19 | 0.84 | 1.02 | 1.16 | 0.82 |  |  |  |  |  |  |
| CC(=O)N[C@@H](CC(=O)O)C(=O)N[C@@H](CCC(=O)O)C(=O)O [compound 52] (Ac-Asp-Glu-OH) | 0.80 | 0.93 | 0.74 | 0.88 | 1.05 | 0.84 |  |  |  |  |  |  |
| O=C(O)CCC(NC(=O)C(O)(CC(=O)O)CC(=O)O)C(=O)O (stereo not drawn) [compound 53] | 0.85 | 0.95 | 0.81 | 0.92 | 1.04 | 0.88 |  |  |  |  |  |  |
